Reference: paper PMC12143978
These are yes or no findings as the source states them, for the method shown. Binding seen in cells or lysates may run through a third protein. These calls come from enrichment with a bait or labelling near it, and not all partners need be listed. Tags and fused reporters may be left off the sequences shown.

By UniProt entry, the sequences of proteins in these tests, tags left out.
UniProt Q9NXR7: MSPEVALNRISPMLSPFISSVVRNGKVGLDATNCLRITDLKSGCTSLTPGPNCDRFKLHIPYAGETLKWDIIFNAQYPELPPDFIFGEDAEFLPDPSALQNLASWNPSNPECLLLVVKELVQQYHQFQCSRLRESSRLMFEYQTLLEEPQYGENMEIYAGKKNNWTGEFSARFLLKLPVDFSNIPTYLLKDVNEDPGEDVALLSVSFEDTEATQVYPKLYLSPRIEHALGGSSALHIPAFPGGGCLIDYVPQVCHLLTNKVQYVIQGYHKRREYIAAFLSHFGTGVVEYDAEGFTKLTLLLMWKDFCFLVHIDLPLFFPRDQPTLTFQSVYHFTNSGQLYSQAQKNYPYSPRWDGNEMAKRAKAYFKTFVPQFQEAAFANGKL
UniProt P78527: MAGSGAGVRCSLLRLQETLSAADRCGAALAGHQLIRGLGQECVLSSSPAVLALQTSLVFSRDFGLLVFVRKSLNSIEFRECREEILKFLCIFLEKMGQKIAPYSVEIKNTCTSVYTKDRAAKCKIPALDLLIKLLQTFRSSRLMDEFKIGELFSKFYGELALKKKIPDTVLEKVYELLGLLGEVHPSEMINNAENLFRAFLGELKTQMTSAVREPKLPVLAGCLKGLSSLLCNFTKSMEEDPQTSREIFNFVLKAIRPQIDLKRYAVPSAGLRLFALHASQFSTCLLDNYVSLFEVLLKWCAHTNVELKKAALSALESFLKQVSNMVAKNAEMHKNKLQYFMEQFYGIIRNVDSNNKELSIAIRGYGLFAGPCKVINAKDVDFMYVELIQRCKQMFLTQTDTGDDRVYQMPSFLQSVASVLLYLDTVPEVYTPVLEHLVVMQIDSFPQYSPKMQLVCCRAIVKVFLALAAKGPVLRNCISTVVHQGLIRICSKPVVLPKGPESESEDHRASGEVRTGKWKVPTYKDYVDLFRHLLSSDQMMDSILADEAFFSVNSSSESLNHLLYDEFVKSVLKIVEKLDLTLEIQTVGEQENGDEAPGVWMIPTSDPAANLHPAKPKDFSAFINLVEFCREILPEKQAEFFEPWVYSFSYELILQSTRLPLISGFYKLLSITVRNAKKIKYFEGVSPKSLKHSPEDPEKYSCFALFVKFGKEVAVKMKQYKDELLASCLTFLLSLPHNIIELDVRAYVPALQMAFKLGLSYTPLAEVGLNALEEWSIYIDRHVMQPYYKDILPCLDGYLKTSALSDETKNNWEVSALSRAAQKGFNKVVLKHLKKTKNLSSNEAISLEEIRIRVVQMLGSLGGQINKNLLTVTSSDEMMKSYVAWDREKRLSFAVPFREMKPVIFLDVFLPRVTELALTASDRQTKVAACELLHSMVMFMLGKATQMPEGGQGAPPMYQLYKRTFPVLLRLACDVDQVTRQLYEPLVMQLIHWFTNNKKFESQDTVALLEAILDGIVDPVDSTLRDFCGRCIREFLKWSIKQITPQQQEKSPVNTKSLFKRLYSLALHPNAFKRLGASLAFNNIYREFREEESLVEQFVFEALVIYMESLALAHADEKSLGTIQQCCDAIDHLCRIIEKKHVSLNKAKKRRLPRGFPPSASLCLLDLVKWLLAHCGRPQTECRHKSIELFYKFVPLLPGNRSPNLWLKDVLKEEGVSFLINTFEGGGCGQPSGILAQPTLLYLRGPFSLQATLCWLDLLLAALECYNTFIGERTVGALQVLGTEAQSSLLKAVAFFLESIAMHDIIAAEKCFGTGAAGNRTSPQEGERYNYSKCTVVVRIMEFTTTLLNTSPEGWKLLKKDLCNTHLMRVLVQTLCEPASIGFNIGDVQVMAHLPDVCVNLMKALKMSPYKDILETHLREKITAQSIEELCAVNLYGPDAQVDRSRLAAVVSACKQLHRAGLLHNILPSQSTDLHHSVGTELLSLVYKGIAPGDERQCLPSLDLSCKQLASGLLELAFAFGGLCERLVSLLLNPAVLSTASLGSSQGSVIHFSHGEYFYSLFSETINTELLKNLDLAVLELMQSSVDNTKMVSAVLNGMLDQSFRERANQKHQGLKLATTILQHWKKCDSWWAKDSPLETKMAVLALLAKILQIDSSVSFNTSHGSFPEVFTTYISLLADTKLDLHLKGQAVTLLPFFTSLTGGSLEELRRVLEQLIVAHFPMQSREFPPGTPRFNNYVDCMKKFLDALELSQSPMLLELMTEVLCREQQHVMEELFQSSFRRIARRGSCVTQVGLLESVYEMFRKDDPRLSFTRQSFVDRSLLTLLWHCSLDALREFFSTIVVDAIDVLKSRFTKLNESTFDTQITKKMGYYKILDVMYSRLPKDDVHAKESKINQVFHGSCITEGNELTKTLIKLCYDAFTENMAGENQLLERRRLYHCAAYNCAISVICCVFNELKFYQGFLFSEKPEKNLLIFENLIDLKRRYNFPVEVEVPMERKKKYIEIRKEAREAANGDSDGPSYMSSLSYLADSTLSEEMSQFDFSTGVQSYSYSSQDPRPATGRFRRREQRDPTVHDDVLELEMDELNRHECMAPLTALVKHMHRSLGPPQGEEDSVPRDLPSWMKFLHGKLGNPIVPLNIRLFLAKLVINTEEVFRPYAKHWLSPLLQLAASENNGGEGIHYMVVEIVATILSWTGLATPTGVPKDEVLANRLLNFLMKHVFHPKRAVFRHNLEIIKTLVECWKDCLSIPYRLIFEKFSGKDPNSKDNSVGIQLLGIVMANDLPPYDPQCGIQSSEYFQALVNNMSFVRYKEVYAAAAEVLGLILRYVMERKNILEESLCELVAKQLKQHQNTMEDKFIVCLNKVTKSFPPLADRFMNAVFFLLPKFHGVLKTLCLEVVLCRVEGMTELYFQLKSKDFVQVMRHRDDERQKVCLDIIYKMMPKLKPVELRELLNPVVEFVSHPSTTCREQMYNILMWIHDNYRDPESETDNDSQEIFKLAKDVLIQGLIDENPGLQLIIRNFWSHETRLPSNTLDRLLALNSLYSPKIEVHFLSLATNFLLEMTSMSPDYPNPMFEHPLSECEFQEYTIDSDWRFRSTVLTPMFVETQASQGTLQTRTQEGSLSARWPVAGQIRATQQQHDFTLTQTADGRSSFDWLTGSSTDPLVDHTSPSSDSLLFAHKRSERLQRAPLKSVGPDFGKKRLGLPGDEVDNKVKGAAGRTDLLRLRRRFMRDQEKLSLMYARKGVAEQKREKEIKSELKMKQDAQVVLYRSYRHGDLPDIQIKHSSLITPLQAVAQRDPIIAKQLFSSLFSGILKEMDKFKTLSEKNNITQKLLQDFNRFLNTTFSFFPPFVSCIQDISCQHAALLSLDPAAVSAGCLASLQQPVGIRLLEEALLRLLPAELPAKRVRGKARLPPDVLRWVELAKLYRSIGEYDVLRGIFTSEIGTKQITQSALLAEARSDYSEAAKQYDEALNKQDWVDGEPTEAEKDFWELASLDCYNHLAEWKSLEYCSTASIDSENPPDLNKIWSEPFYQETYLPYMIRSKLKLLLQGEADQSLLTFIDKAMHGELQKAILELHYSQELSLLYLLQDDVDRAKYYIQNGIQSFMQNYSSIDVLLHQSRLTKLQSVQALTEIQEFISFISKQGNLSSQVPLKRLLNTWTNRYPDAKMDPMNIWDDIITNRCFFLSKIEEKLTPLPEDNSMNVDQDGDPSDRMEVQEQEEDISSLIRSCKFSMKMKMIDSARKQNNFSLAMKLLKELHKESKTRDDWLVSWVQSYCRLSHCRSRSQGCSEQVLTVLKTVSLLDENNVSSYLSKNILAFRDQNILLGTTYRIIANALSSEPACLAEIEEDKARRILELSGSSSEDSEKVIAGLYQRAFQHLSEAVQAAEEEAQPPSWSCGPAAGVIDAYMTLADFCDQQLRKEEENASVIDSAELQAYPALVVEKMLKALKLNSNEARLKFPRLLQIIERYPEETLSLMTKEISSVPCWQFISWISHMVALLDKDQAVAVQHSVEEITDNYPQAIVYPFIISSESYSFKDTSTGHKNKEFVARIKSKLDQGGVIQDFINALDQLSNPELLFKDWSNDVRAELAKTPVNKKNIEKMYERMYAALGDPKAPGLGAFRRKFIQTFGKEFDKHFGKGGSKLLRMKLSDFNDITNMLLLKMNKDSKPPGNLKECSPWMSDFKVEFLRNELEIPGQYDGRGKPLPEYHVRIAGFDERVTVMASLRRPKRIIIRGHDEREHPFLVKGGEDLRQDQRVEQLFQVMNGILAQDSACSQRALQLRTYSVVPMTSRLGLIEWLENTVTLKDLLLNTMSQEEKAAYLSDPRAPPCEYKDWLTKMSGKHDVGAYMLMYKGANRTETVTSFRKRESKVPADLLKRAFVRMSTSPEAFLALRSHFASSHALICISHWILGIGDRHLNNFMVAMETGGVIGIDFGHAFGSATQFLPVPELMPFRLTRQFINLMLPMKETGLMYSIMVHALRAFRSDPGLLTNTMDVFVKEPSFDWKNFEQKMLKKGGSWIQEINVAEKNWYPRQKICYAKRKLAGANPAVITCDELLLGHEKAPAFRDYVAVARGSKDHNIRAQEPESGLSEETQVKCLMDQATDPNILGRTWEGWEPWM
UniProt Q12834: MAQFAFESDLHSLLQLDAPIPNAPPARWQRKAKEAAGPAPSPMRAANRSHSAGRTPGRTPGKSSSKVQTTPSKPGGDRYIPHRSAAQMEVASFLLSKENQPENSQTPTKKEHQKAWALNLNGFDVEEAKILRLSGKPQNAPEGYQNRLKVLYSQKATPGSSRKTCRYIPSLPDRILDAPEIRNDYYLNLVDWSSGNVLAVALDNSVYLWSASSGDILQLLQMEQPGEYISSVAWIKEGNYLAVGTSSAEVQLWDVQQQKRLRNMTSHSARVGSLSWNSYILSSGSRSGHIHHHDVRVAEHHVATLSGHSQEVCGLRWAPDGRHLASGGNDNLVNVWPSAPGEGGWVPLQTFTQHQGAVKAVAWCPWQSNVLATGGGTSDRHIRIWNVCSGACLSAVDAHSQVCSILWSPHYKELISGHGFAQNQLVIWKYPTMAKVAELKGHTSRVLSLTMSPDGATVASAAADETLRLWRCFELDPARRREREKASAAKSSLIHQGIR

T1: GST-tagged FLCN (folliculin) (human) (UniProt Q8NFG4)
T1 sequence: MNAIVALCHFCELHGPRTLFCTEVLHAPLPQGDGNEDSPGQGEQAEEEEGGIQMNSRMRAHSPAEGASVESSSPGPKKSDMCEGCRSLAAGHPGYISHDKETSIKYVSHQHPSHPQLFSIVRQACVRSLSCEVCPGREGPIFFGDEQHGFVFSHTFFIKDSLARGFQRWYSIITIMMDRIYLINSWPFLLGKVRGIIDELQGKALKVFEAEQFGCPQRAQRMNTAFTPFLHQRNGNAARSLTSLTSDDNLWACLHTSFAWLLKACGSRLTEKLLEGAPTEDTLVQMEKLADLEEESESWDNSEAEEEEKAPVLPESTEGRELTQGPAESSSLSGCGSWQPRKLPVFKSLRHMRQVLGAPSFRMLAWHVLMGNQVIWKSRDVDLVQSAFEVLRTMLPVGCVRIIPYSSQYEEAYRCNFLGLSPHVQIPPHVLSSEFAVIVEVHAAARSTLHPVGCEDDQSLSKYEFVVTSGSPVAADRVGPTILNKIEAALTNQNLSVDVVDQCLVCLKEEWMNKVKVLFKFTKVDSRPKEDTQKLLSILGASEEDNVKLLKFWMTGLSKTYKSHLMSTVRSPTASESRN


Target: T1, GST-tagged FLCN (folliculin) (human)
Assay: affinity purification with mass spectrometry; GST-FLCN overexpressed in HEK293 cells, purified with its interacting proteins, separated via SDS-PAGE, colloidal blue stain, gel sectioned, LC-MS/MS

Row | Molecule | binding
1 | BRCA1 A complex component BRE (from UniProt Q9NXR7 1-383) | binds
2 | DNA-dependent protein kinase catalytic subunit (DNA-PKcs) (from UniProt P78527 1-4128) | binds

Continued, values first:

Row | binding | Molecule
3 | binds | CDC20 (from UniProt Q12834 1-499)
4 | binds | TP53 (from UniProt P04637 1-393)
5 | binds | FLCN-interacting protein 1 (FNIP1) (protein, UniProt Q8TF40 1-1166) MAPTLFQKLFSKRTGLGAPGRDARDPDCGFSWPLPEFDPSQIRLIVYQDCERRGRNVLFDSSVKRRNEDISVSKLGSDAQVKVFGKCCQLKPGGDSSSSLDSSVTSSSDIKDQCLKYQGSRCSSDANMLGEMMFGSVAMSYKGSTLKIHQIRSPPQLMLSKVFTARTGSSICGSLNTLQDSLEFINQDNNTLKADNNTVINGLLGNIGLSQFCSPRRAFSEQGPLRLIRSASFFAVHSNPMDMPGRELNEDRDSGIARSASLSSLLITPFPSPNSSLTRSCASSYQRRWRRSQTTSLENGVFPRWSIEESFNLSDESCGPNPGIVRKKKIAIGVIFSLSKDEDENNKFNEFFFSHFPLFESHMNKLKSAIEQAMKMSRRSADASQRSLAYNRIVDALNEFRTTICNLYTMPRIGEPVWLTMMSGTPEKNHLCYRFMKEFTFLMENASKNQFLPALITAVLTNHLAWVPTVMPNGQPPIKIFLEKHSSQSVDMLAKTHPYNPLWAQLGDLYGAIGSPVRLARTVVVGKRQDMVQRLLYFLTYFIRCSELQETHLLENGEDEAIVMPGTVITTTLEKGEIEESEYVLVTMHRNKSSLLFKESEEIRTPNCNCKYCSHPLLGQNVENISQQEREDIQNSSKELLGISDECQMISPSDCQEENAVDVKQYRDKLRTCFDAKLETVVCTGSVPVDKCALSESGLESTEETWQSEKLLDSDSHTGKAMRSTGMVVEKKPPDKIVPASFSCEAAQTKVTFLIGDSMSPDSDTELRSQAVVDQITRHHTKPLKEERGAIDQHQETKQTTKDQSGESDTQNMVSEEPCELPCWNHSDPESMSLFDEYFNDDSIETRTIDDVPFKTSTDSKDHCCMLEFSKILCTKNNKQNNEFCKCIETVPQDSCKTCFPQQDQRDTLSILVPHGDKESSDKKIAVGTEWDIPRNESSDSALGDSESEDTGHDMTRQVSSYYGGEQEDWAEEDEIPFPGSKLIEVSAVQPNIANFGRSLLGGYCSSYVPDFVLQGIGSDERFRQCLMSDLSHAVQHPVLDEPIAEAVCIIADMDKWTVQVASSQRRVTDNKLGKEVLVSSLVSNLLHSTLQLYKHNLSPNFCVMHLEDRLQELYFKSKMLSEYLRGQMRVHVKELGVVLGIESSDLPLLAAVASTHSPYVAQILL
6 | binds | co-chaperone CDC37 (protein, UniProt Q16543 1-378) MVDYSVWDHIEVSDDEDETHPNIDTASLFRWRHQARVERMEQFQKEKEELDRGCRECKRKVAECQRKLKELEVAEGGKAELERLQAEAQQLRKEERSWEQKLEEMRKKEKSMPWNVDTLSKDGFSKSMVNTKPEKTEEDSEEVREQKHKTFVEKYEKQIKHFGMLRRWDDSQKYLSDNVHLVCEETANYLVIWCIDLEVEEKCALMEQVAHQTIVMQFILELAKSLKVDPRACFRQFFTKIKTADRQYMEGFNDELEAFKERVRGRAKLRIEKAMKEYEEEERKKRLGPGGLDPVEVYESLPEELQKCFDVKDVQMLQDAISKMDPTDAKYHMQRCIDSGLWVPNSKASEAKEGEEAGPGDPLLEAVPKTGDEKDVSV
